Experimental data from patent US20250275938A1, “COMPOSITIONS AND METHODS FOR TREATMENT OF CANCER” (SCIROSBIO (FZC), priority 2022, published 2025).

How the values were obtained:
[1] = test system: Ki67; assay: Immunohistochemistry of tumor sections, Ki67; type: in vivo, rat; details: i.p. 7 days; tumor-control 36.73%
Description: Immunohistochemistry. For immunohistochemistry (IHC) analysis, 4 μm thick tissue sections were deparaffinized in xylene and hydrated by immersing in a series of graded ethanol concentration (100%, 95%, 75% and 50%). Endogenous peroxidase activity was blocked by incubating sections in 3% H2O2 solution prepared in methanol at room temperature for 10 minutes and were washed with PBS twice for 5 minutes each. Antigen retrieval was performed by immersing the slides in 300 ml of retrieval buffer (10 mM citrate buffer, pH 6.0) for one hour at 100° C. and were rinsed twice in PBS. Sections were then incubated with approximately 100 μl diluted primary antibodies of Ki67 (1:100 dilution, Elabscience, Wuhan, China) and Vascular Endothelial Growth Factor (VEGF) (1:100 dilution, Elabscience, Wuhan, China) for 30 minutes at room temperature. The slides were then washed twice with PBS and were then incubated with approximately 100 μl of diluted secondary antibody (Cat No. E-IR-R213, Elabscience, Wuhan, China) at room temperature for 30 minutes. Slides were then washed in PBS for 5 minutes, followed by incubation with approximately 100 μl diluted Horse Radish Peroxidase (HRP) conjugate for 30 minutes. […] The staining intensities were quantified using IHC Profiler, a plugin in ImageJ software, to determine the H-score (Histo score).

[2] = test system: rat brain tissue; assay: Western blotting and ELISA of brain tissue proteins; type: in vivo; details: i.p. 7 days
Description: Cell lysis and protein quantification. For protein isolation, 500 mg of brain tissues of all the experimental groups were washed with 0.9% NaCl, 5 times each, to remove contaminated blood and was fully grilled in liquid nitrogen. Two ml of RIPA protein extraction buffer (20 mM Tris-HCl (pH 7.5), 150 mM NaCl, 1 mM sodium ethylenediamine tetra acetate (EDTA), 1 mM EDTA, 1% NP-40, 1% sodium deoxycholate, 2.5 mM sodium pyrophosphate, 1 mM β-glycerophosphate, 1 mM Na3VO4, 1 μg/ml leupeptin) was added to the brain tissues, crushed and then centrifuged at 12000×g for 15 minutes at 40° C. The lysates were then collected, centrifuged again at 12000×g for 15 minutes at 40° C. The protein extract collected as a supernatant was then quantified using Bradford method.
Western blotting. Following quantification, 40-100 μg of the total protein were separated by sodium dodecyl sulphate polyacrylamide gel electrophoresis (SDS-PAGE) and then transferred onto polyvinylidene difluoride (PVDF) membrane (Millipore, Germany) by the wet transfer method. […] Each immune complex was detected by Enhanced Chemiluminescence (ECL) Substrate (Santa Cruz, Texas, USA) and was visualized by the Chem-doc (Pearl® Trilogy/LI-COR, USA). Quantitative analysis for Western blot was made by ImageJ® software. […]

[3] = test system: human hepatocellular carcinoma (HepG2) cells; assay: MTT cell viability assay, HepG2; type: cell-based; details: 24 hours
Description: Cell lines and culture conditions. A human hepatocellular carcinoma (HepG2) and ovarian cancer (SKOV3) cells were obtained from National Centre for Cell Science (NCCS), Pune, India. The cells HepG2 and SKOV3 were sub-cultured in Eagle's Minimum Essential Medium (EMEM) and McCoy's 5a supplemented with 10% FBS at 5% CO2 and 37° C. At 85% confluence, the cells were harvested using 0.25% trypsin and seeded in 25 cm^2 flasks, 96 well, and 6-well plates, according to the experiment being performed. The cells were allowed to attach 70% to the surface prior to treatment. A stock solution of all the drugs (10 mg/ml) was made in distilled H2O and diluted to the required concentrations. Suspensions were aspirated 10 times before treatment. Cells treated with vehicle control were used as a control.
Cell viability assay. HepG2 and SKOV3 cells (5×10^3 cells/ml) were seeded in 96-well plates and exposed to different individual-drug treated groups with varying concentrations (0, 10, 40, 80, 120, and 160 μM) for a period of 24 hours. The individual-treated groups include Group I: SOR/CPL-treated HepG2 and SKOV3 cells respectively; Group II: MET-treated HepG2 and SKOV3 cells; Group III: EGCG-treated HepG2 and SKOV3 cells and Group IV: SOR+MET+EGCG and CPL+MET+EGCG treated HepG2 and SKOV3 cells respectively.

[4] = test system: U-87 MG Human GB cell line; assay: Glucose uptake assay, U-87 MG; type: cell-based
Description: (§1) Human GB cell line, U-87 MG and rat glioma cell line C6 were obtained from National Centre for Cell Science (NCCS), Pune, India. The cells were sub-cultured in Dulbecco's Modified Eagle's Medium (DMEM) supplemented with 10% FBS at 5% CO2 and 37° C. On reaching 85% confluence, the cells were harvested using 0.25% trypsin and used accordingly. For the treatment, the stock solution (10 mM) of each drug (Temozolomide (T), metformin (M), epigallocatechin gallate (E)) was made with sterile water and were further diluted using serum-free medium to arrive at the required concentrations. Suspensions were aspirated 10 times before treatment. Cells treated with vehicle control were used as a control.
(§2) Glucose uptake assay was performed using Glucose Uptake-Glo kit (Promega, USA). The assay was performed according to the manufacturer's protocol, for both the cell lines and astrocytes isolated from the rat brain tissue.

[5] = test system: HEK293T (Human Embryonic Kidney) cells; assay: Trypan blue exclusion cytotoxicity on normal cell line; type: cell-based; details: treated at IC50 values determined in U87MG and C6, 24 hours
Description: Cytotoxicity on a normal cell line.
Furthermore, to check for the cytotoxicity of the drugs, a trypan blue dye exclusion assay was performed on a normal cell line, HEK293T, using the IC50 values of each drug, individually and in combination, as determined in U87MG and C6 cells and shown in Table 2.

[6] = test system: astrocytes isolated from the rat brain tissue; assay: Glucose uptake assay, astrocytes isolated from the tumor tissue; type: in vivo; details: astrocytes from brain tissue of GB-bearing xenograft rats; i.p. 7 days
Description: In vivo glioma model generation, study design, group assignment, drug dose and other relevant information are disclosed in the Example-5. In brief, Wistar rats were anesthetized and using a stereotaxic head frame 1×10^6 C6 glioma cells was injected at right striatum. The rats were monitored daily for signs of distress and death. Treatment with drugs was commenced 20 days after orthotopic implantation of glioma cells. The same study samples in Example-5 used to analyse the anti-Warburg effect.
Primary astrocytes were collected from the isolated brain tissues as described by Schildge, et aL. (J. Vis. Exp. (71), e50079). In brief, the brain tissues of all experimental groups were isolated, immediately after decapitation. The minced tissue was dissociated using 0.05% trypsin at 37° C. for 30 min. To isolate individual astrocytes, the cell suspension was passed through 40 µm strainer. At last, astrocytes were seeded at a density of 1.5×10^5 cells/cm^2 in 90% DMEM containing 10% FBS, and 4.5 g/L glucose. The astrocytes were cultured at 37° C. with 95% air and 5% CO2.
as §2

[7] = test system: C6 rat GB cell line; assay: Glucose uptake assay, C6; type: cell-based
Description: as §1, §2

## CN(C)C(=N)NC(=N)N.Cl [MET, 3-(diaminomethylidene)-1,1-dimethylguanidine; hydrochloride]
[1]
  Ki67 nuclear positivity rate: 18.36%
[2]
  levels of pAKT1: significantly reduced
  levels of pmTOR: significantly reduced
[3]
  cell viability (MTT), in words: reduction in cell viability in a dose-dependent fashion
[4]
  glucose uptake: reduced glucose uptake significantly
[5]
  toxicity in normal HEK293T cells: significant reduction in toxicity
[6]
  glucose uptake: reduced glucose uptake significantly
[7]
  glucose uptake: reduced glucose uptake significantly
